Test [1] addresses Flag-tagged PIM2 (human) (UniProt Q9P1W9). Briefly: co-IP; HEK293T cells transfected with Flag-tagged PIM2, 24 h, then hypoxia 24 h; IP with anti-Flag antibody, immunoblot for endogenous HIF-1α.
Test [2] deals with Endogenous HIF-1α (HepG2 cells) (human (endogenous in HepG2)) (UniProt Q16665). The test can be described thus: co-IP; endogenous proteins, HepG2 cells under hypoxia 24 h; IP with anti-HIF-1α or anti-HIF-2α antibody, immunoblot.
The target in test [3] is Endogenous HIF-2α (HepG2 cells) (human (endogenous in HepG2)) (UniProt Q99814). The description is as above.
Another test has as its target GFP-tagged HIF-1α (UniProt Q16665). The test can be described thus: co-IP; HEK293T cells co-transfected with Flag-tagged PIM2 and GFP-tagged HIF-1α, 24 h, then hypoxia (1% O2) 24 h; reciprocal: IP with anti-Flag or anti-GFP antibody and protein A agarose overnight at 4°C, washed five times with RIPA lysis buffer, immunoblot.
Test [4] concerns the target Flag-tagged PIM2 (human) (UniProt Q9P1W9). The test is described as above.
For test [5] the target is unchanged. Briefly: co-IP; HEK293T cells co-transfected with Flag-tagged PIM2 and HA-tagged HIF-1α (575-826aa), 24 h, then hypoxia 24 h; the legend says IP with anti-HA antibody, immunoblot.

Amino acid sequences for entries named in this document (tags omitted). A change or cut given only in a name is not applied to a line headed by its entry.
UniProt Q9P1W9: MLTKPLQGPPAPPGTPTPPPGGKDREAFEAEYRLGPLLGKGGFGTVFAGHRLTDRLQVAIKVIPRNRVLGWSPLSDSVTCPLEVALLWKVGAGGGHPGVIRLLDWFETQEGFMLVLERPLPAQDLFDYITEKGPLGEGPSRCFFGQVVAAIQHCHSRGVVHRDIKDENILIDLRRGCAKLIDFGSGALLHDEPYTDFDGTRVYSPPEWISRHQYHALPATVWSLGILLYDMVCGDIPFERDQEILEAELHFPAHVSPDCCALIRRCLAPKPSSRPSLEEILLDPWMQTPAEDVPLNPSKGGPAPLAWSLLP
UniProt Q16665: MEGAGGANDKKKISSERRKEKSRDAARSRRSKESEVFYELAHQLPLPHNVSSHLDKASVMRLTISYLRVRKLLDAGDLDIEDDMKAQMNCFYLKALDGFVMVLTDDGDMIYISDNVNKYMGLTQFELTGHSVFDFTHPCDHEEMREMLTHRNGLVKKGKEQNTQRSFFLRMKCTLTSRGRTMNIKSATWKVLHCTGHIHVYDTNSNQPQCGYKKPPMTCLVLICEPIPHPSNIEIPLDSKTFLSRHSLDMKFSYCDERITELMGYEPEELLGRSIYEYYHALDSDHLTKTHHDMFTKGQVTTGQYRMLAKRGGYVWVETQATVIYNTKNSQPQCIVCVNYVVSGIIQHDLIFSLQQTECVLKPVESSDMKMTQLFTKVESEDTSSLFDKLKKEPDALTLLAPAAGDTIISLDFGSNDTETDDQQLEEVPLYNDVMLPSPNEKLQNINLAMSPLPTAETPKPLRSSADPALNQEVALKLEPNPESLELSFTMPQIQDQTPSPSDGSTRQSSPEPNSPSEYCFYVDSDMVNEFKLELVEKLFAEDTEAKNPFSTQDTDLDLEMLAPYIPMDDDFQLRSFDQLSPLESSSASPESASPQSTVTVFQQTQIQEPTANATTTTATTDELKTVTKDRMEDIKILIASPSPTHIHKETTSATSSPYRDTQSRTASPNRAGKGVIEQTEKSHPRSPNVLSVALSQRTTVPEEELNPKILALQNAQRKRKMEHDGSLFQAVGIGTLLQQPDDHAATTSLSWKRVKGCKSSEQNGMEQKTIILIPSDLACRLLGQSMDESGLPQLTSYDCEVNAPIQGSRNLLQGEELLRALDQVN
UniProt Q99814: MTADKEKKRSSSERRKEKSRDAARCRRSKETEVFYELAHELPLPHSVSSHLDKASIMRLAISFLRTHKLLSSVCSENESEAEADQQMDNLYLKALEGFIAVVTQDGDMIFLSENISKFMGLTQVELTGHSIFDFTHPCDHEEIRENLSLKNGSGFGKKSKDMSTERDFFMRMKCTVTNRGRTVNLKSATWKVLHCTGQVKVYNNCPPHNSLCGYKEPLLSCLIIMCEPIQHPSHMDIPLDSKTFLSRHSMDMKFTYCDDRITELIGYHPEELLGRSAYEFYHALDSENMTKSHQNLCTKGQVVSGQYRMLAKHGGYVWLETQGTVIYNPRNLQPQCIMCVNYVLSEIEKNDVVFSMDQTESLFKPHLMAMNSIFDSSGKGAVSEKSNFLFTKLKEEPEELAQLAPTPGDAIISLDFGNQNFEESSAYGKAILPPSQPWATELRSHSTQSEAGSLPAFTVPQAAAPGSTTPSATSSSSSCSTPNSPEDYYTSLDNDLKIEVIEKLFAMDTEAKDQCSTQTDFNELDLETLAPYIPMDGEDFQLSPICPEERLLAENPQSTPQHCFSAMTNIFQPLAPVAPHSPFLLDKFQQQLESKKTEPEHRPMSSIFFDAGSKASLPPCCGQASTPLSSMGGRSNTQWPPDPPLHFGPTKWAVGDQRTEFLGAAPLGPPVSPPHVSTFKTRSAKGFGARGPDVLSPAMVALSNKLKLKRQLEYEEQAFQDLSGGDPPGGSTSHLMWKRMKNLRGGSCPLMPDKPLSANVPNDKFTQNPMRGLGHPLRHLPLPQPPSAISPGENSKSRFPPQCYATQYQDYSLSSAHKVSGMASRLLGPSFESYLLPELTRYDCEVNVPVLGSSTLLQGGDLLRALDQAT

No constants are given. Whether binding was seen depends on the method and setting. In cells and extracts the contact can be indirect. Some binding calls cover weakened binding; strength is not graded here.

As to “Endogenous HIF-1α (HEK293T cells) (from UniProt Q16665 1-826)”, the binding entry with Flag-tagged PIM2 (human) [1] is “binds”.
Regarding “Endogenous PIM2 (HepG2 cells) (from UniProt Q9P1W9 1-311) (enzyme)”, the binding result in test [2] and in test [3] was “binds” in each case.
Consider “Flag-tagged PIM2 (from UniProt Q9P1W9 1-311) (enzyme)”, for which, in the test with GFP-tagged HIF-1α, the binding entry is on record as “binds”.
As to “GFP-tagged HIF-1α (from UniProt Q16665 1-826)”, the binding result with Flag-tagged PIM2 (human) [4] was “binds”.
“HA-tagged HIF-1α transactivation domain (575–826aa) (from UniProt Q16665 575-826) (domain or fragment)”: the binding result in the test with Flag-tagged PIM2 (human) [5] is on record as “binds”.
